Amino acid sequences for entries named in this document (tags omitted). A change or cut given only in a name is not applied to a line headed by its entry.
UniProt P18054: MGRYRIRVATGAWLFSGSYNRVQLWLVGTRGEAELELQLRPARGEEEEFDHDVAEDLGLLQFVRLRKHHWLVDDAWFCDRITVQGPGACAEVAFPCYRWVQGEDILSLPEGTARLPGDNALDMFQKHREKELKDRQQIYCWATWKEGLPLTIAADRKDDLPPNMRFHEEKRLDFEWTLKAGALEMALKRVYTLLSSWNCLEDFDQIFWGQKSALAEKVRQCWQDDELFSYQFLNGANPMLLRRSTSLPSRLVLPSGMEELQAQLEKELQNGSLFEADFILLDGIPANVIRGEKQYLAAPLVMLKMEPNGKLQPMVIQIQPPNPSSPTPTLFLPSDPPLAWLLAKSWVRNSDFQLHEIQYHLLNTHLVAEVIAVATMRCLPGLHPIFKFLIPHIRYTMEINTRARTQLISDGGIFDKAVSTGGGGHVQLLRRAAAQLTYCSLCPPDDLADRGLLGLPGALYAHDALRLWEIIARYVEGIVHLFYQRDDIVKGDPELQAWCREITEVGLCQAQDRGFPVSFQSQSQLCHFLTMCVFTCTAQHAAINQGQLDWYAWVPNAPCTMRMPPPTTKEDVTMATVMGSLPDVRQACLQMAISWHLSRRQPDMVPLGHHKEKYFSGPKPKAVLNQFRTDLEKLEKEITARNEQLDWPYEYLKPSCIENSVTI

Out of some 580,000 compounds screened, about 6,100 (1.1%) were called active. Inconclusive means that the source gave no clear call. Such entries were picked first, then a sample of the others. The call rests on the fitted dose curve; in most records, active means well fitted inhibition curve with a large enough effect; inconclusive means small, poorly fitted or top-dose-only effect, or another doubt; inactive means no such curve, though single readings can be large or run the other way. Potencies of inconclusive entries are doubtful fits and often do not repeat.
The compounds below were run against Polyunsaturated fatty acid lipoxygenase ALOX12 (Homo sapiens) (UniProt P18054) (assay: Primary qHTS assay for inhibitors of human arachidonate 12S-lipoxygenase (ALOX12): Round 2). Conditions: purified 12hLO, xylenol orange hydroperoxide absorbance; activity change, negative = inhibition: at 108 µM (top of the series) unless noted.
In short: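 Hydroperoxide product was detected by ferrous iron/xylenol orange as the 573 to 405 nm absorbance ratio. Arachidonic acid at 40 uM (final) was turned over for 30 min at room temperature by 150 nM human 12hLO, pH 7.0 Hepes buffer, after 15 min compound preincubation.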
With `Cn1c(=O)c2c(ncn2Cc2cccc(OC(F)F)c2)n(C)c1=O` the Potency was inconclusive: 126 µM [inhibitor, partial curve, poor fit].
`CCc1ccc(C(C(=O)NC2CCCCC2)N(C(=O)c2csnn2)C2CC2)cc1` (centres undefined) was tested, and the Potency was inconclusive: 63.1 µM [inhibitor, partial curve, poor fit].
For `Cc1ccc(-c2nc(C)sc2CC(=O)Nc2cccc(C)c2C)cc1`, the “activity change, negative = inhibition” value was inactive: -17.7%.
With `O=C(CN1CCN(Cc2ccccc2)CC1)c1ccc(Br)cc1` the Potency was inconclusive: 35.5 µM [inhibitor, partial curve, poor fit].
In the case of `O=C(CC1N=C2c3ccccc3N=C(SCC(=O)Nc3cccc(Cl)c3)N2C1=O)NCc1cccs1` (centres undefined), the Potency is reported as inconclusive: 126 µM [inhibitor, single point].
In the case of `CC(=O)Nc1ccc(C(=O)N/N=C/c2ccccc2OC(=O)c2ccc(Cl)cc2)cc1`, the “activity change, negative = inhibition” value is reported as inactive: 146%.
For `Cc1cc(NC(=O)CSc2nc3cc(C)c(C)cc3cc2C)no1`, the “activity change, negative = inhibition” value was inactive: -9.32%.
With `CCCCCCCCOC(=O)c1nc(Cl)c(Cl)c(N)c1Cl` the “activity change, negative = inhibition” value was inactive: -3.99%.
In the case of `COc1ccc(CCNC(=O)Cn2cc(S(=O)(=O)Cc3ccccc3F)c3ccccc32)cc1OC`, the Potency is reported as inconclusive: 112 µM [inhibitor, partial curve, poor fit].
`CNC(=O)CCn1ncc2cc(OC3CCc4cccc(-c5cccc(F)c5)c43)ccc21` (centres undefined) was tested, and the Potency was inconclusive: 100 µM [inhibitor, partial curve].
With `Cc1ccc(NC(=O)CC2CCCN(c3cnn(C)c(=O)c3)C2)cc1F` (centres undefined) the “activity change, negative = inhibition” value was inactive: 1.48%.
For `CC(NC(=O)COC(=O)c1cc([N+](=O)[O-])ccc1N1CCOCC1)c1ccc(F)cc1` (centres undefined), the Potency was inconclusive: 44.7 µM [inhibitor, partial curve, poor fit].
`CC(=O)Nc1ccc(Nc2nc(C)nc3c2oc2ccccc23)cc1` was tested, and the “activity change, negative = inhibition” value was inactive: 0%.
`CC1CCN(S(=O)(=O)c2ccc(N3CCCCS3(=O)=O)cc2)CC1` was tested, and the activity change, negative = inhibition was inconclusive: -30.9% [inhibitor].
For `CCOc1ccc(C2NC(=O)NC(c3ccccc3)=C2C(C)=O)cc1OC` (centres undefined), the Potency was inconclusive: 0.794 µM [inhibitor, full curve, poor fit].
For `CC(C)(c1ccccc1)c1cccc(C(C)(C)c2ccccc2)c1O`, the “activity change, negative = inhibition” value was inactive: -8.23%.
For `CC(NC(=O)CCSc1nc(-c2ccco2)cc(C(F)(F)F)n1)c1ccccc1` (centres undefined), the Potency was inconclusive: 50.1 µM [inhibitor, partial curve, poor fit].
For `CC(=O)Oc1ccc(/C=C2/C(=O)N(c3ccccc3)N=C2C)cc1`, the Potency was inconclusive: 28.2 µM [inhibitor, single point].
With `Cc1cccc(-c2ocnc2C(=O)NCC(C)c2ccccc2)c1` (centres undefined) the activity change, negative = inhibition was inconclusive: -30.3% [inhibitor].
`Cc1[nH]c(I)c(C)c1C=O` was tested, and the Potency was active: 14.1 µM.
`CCOC(=O)c1c(/N=C/N(C)C)sc(/C=N/Nc2ccccc2)c1-c1ccc(Cl)cc1` was tested, and the Potency was inconclusive: 44.7 µM [inhibitor, partial curve, poor fit].
For `COc1ccc(OCCNC(=O)c2cnc3ccccc3n2)cc1`, the Potency was inconclusive: 126 µM [inhibitor, single point].
`C=CCOc1ccc(CNCc2cccnc2)cc1OCC` was tested, and the Potency was inconclusive: 35.5 µM [inhibitor, partial curve, poor fit].
In the case of `CCOc1ccc(-c2csc(NC(=O)c3ccco3)n2)cc1`, the Potency is reported as inconclusive: 44.7 µM [inhibitor, partial curve, poor fit].
`CCN1CCc2c(sc(NC(=O)c3ccc(C(=O)c4ccccc4)cc3)c2C(N)=O)C1` was tested, and the Potency was inconclusive: 50.1 µM [inhibitor, partial curve].
With `COc1cc(C(=O)N2CCC(CC(=O)NCCN3CCCCCC3)CC2)cc(OC)c1OC` the “activity change, negative = inhibition” value was inactive: -8.3%.
For `S=C(NN=C(C1CC1)C1CC1)Nc1ccccc1`, the Potency was inconclusive: 44.7 µM [inhibitor, partial curve].
For `CC1(C)Cc2c(sc3[nH]c(=S)[nH]c(=O)c23)CO1`, the Potency was inconclusive: 50.1 µM [inhibitor, partial curve, poor fit].
`O=C(CSc1nc2ccccc2s1)c1cc2ccccc2o1` was tested, and the “activity change, negative = inhibition” value was inactive: -6.05%.
In the case of `CCC1(c2ccccc2)NC(=S)N(c2cccc(C)c2C)N1` (centres undefined), the Potency is reported as active: 25.1 µM.
`Cn1ccnc1SCC(=O)c1cccc(Br)c1` was tested, and the Potency was inconclusive: 44.7 µM [inhibitor, partial curve, poor fit].
In the case of `Cc1ccc(NC(=O)c2ccccc2NC(=O)c2cccnc2)cc1`, the Potency is reported as inconclusive: 44.7 µM [inhibitor, single point].
For `COc1ccc2c(c1)Cc1sc(NC(=O)c3ccccc3Br)nc1-2`, the Potency was inconclusive: 44.7 µM [inhibitor, partial curve, poor fit].
In the case of `COc1ccccc1NC(=O)Nc1ccc(CC#N)cc1`, the Potency is reported as inconclusive: 126 µM [inhibitor, partial curve, poor fit].
In the case of `Cc1cccc(/C=N/Nc2nncc3ccccc23)c1`, the “activity change, negative = inhibition” value is reported as inactive: 7.91%.
With `CCc1ccc(NC(=O)c2ccc3c(c2)N(Cc2ccc(C)cc2)CCS3)cc1` the Potency was inconclusive: 100 µM [inhibitor, partial curve, poor fit].
`Cc1ccc(C(=O)C(C)OC(=O)CNS(=O)(=O)c2ccc(C)cc2)cc1` (centres undefined) was tested, and the Potency was inconclusive: 112 µM [inhibitor, single point].
With `CCCSc1nc2c(c(=O)n(C)c(=O)n2C)n1Cc1cccc2ccccc12` the Potency was inconclusive: 1 µM [inhibitor, full curve].
`Cc1ccccc1C(OC(=O)c1nn(C)c(=O)c2ccccc12)C(F)(F)F` (centres undefined) was tested, and the “activity change, negative = inhibition” value was inactive: 24.1%.
`Cc1ccc(NC(=O)CN2C(=O)NC(C)(CC(C)C)C2=O)c(Br)c1` (centres undefined) was tested, and the Potency was inconclusive: 141 µM [inhibitor, partial curve, poor fit].
`NC(=O)c1ccsc1NC(=O)c1ccc(N2CCCC2=O)cc1` was tested, and the “activity change, negative = inhibition” value was inactive: 4.26%.
`COc1ccc(-c2onc(C)c2C(=O)N(C)Cc2cc(OC)c(OC)c(OC)c2)cc1` was tested, and the “activity change, negative = inhibition” value was inactive: 3.59%.
With `COC(=O)CNC(=O)c1ccc2ccccc2c1` the Potency was inconclusive: 89.1 µM [inhibitor, single point].
For `Cc1ccc(C(=O)CSc2nc(O)cc(=O)[nH]2)cc1C`, the Potency was inconclusive: 79.4 µM [inhibitor, single point].

Reference: PubChem BioAssay AID1671190 (National Center for Advancing Translational Sciences (NCATS), 2021)
On the % scale 0 is the no-effect control and ±100 the full control effect; potency means the concentration at half of the fitted maximal effect.
